Assay results reported in article PMC5721685.
These are yes or no findings as the source states them, for the method shown. In cells and extracts the contact can be indirect. Some binding calls cover weakened binding; strength is not graded here.

Protein sequences, listed by entry. Tags and fused reporters are not part of them.
UniProt P74177: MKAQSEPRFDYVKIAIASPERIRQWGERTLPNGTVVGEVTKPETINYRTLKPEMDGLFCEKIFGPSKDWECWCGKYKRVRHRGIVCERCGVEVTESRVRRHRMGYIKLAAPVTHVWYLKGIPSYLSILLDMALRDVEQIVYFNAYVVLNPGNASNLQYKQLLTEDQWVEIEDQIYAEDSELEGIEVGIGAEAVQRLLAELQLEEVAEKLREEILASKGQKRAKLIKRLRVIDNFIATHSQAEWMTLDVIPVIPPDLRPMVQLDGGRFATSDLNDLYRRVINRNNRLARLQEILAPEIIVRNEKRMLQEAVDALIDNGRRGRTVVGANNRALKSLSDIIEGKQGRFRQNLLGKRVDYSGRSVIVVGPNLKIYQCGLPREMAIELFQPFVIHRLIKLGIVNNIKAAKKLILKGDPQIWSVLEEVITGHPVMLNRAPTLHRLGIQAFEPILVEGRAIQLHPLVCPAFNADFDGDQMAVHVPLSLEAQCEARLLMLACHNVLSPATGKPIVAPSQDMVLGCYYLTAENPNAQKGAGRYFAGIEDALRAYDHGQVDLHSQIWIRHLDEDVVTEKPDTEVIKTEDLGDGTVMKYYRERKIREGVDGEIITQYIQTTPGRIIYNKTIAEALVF

Key:
[1] = target: His-tagged γ-subunit of RNA polymerase core (Synechocystis sp. PCC 6803) (UniProt P74177); assay: pull-down; as a1, cells after 6 days of nitrogen depletion (0 h + N) only; His-tagged RNAP complexes collected from the soluble protein fraction, immunoblot
[2] = target: His-tagged γ-subunit of RNA polymerase core (Synechocystis sp. PCC 6803) (UniProt P74177); assay: pull-down; His-tagged RNAP complexes collected with Dynabeads HIS-Tag Isolation and Pulldown Kit from 900 μg soluble protein fraction of WT-RNAP-HIS and ΔssaA-RNAP-HIS cells; standard conditions, 6 d nitrogen depletion, and 1 h, 4 h, 22 h recovery after nitrogen addition; SDS-PAGE and immunoblot, σ factor content normalized to α or β subunit

Row | Binder | binding [1] | binding [2]
1 | primary σ factor SigA (protein, UniProt P74565 1-425) MTQTKEPLTKAESAELEQEIELSQYINTDDIDDDDIDVEDLEQEVAATEGKEKKVRKIRKDAVKKKPYTEDSIRIYLQEIGRIRLLRAEEEIELARQIADLLELELIRDNLTLQLERQPSELEWGKQVWKLETAKQRLVGDKKKEPKKKDIDSYLANPDNELSLENEWSQQPNKNFAAFRRRLFLDRRAKDKMVQSNLRLVVSIAKKYMNRGLSFQDLIQEGSLGLIRAAEKFDHEKGYKFSTYATWWIRQAITRAIADQSRTIRLPVHLYETISRIKKTTKLLSQEMRRKPTEEEIAEKMEMTIEKLRFIAKSAQLPISLETPIGKEEDSRLGDFIEADGETPEDEVSKNLLREDLENVLDTLSPRERDVLRLRYGLDDGRMKTLEEIGQIFNVTRERIRQIEAKALRKLRHPNRNSILKEYIR | binds weakly | binds
2 | α subunit of the RNAP core (protein, UniProt P73297 1-314) MAQFQIECVESSTRKNQQQYSKFSLEPLDRGQGTTVGNALRRVLLSNLPGAAVTAIRIAGVNHEFATILGVREDVLEIMLNMKELVLKSYTDQPQIGRLTAIGPGTVTAAQFEVPSEVEVIDPNQYIATLAEGAKLEMEFRVERGVGYRVIERGKDENSSLDFLQIDSVFMPVTKVNYTVEDIRADGMSPKDRLILDIWTNGSIQPREALSEASDIIANLFIPLKDLNELEAAHSDYQDEVNPESQIPIEELQLSVRAYNCLKRAQINSVADLLEYSQEDLLEIKNFGLKSAEEVIEALQKRLGITLPHEKAKA |  | binds
3 | β subunit of the RNAP core (protein, UniProt P77965 1-1102) MTNLATTMLPDLIEIQHASFHWFLEEGLIEELNSFSPISDYTGKLELHFLGKDYKLKQPKYDVDESKRRDASYSVQMYVPTRLINKETGEIKEQEVFIGDLPLMTERGTFIINGAERVIVNQIVRSPGVYYKKELDKNGRRTYSASLIPNRGAWLKFETDKNGLVYVRIDKTRKLSAQVLLKAIGLSDNEILDSLSHPEFYQKTLDKEGNPTEEEALVELYKKLRPGEPPTVSGGQQLLESRFFDPKRYDLGRVGRYKLNKKLRLNEADTTRVLTPQDILAAINYLINLEFDVGTTDDIDHLGNRRVRSVGELLQNQIRVGLNRLERIIRERMTVSESDALTPASLVNPKPLVAAIKEFFGSSQLSQFMDQTNPLAELTHKRRISALGPGGLTRERAGFAVRDIHPSHHGRICPVETPEGPNAGLIGSLATCARVNDYGFIETPYFRVESGRVRKDLDPVYLTADEEDDMRVAPGDIPTDEEGNIIGESVPIRYRQEFSTTSPEQVDYVAVSPVQIISVATSMIPFLEHDDANRALMGSNMQRQAVPLLRPERPLVGTGLEAQAARDSGMVIVSRTHGIVTYVDATEIRVQPHSPDNPAEKGEEIVYPIQKYQRSNQDTCLNQRPLVYAGEDVVPGQVLADGSATEGGELALGQNILVAYMPWEGYNYEDAILISERLVYDDVYTSIHIEKFEIEARQTKLGPEEITREIPNVGEDALRNLDEHGIIRIGAWVESGDILVGKVTPKGEADQPPEEKLLRAIFGEKARDVRDNSLRVPNGEKGRVVDVRVFTREKGDELPPGANMVVRIYVAQKRKIQVGDKMAGRHGNKGIISRILPIEDMPYLPDGRPIDIALNPLGVPSRMNVGQVFECLLGWAGENLGVRFKITPFDEMYGEEASRDTVHGLLEEASQRPNKDWVFNENHPGKIQVFDGRTGEPFDRPITVGQAYMLKLVHLVDDKIHARSTGPYSLVTQQPLGGKAQQGGQRFGEMEVWALEAYGAAYILQELLTVKSDDMQGRNEALNAIVKGKSIPRPGTPESFKVLMRELQSLGLDIAAHKVQLSEDGESADAEVDLMIDSQRRAPNRPTYESLHTEEDLEEEEV |  | binds
